Experimental findings from article PMC5360572 are described below.

Sequences of proteins named here, by UniProt entry; tags and fusion partners are left off. Residues count along the entry.
UniProt Q9EP73, residues 19-290: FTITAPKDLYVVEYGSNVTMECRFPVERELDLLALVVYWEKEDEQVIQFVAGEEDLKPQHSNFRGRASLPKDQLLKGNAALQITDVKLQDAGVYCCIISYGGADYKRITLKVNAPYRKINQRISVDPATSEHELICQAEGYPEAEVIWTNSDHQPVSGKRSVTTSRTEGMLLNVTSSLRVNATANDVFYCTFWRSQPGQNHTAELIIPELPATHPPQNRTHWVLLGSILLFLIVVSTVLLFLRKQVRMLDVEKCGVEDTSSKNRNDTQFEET
UniProt Q9WUL5, residues 20-247: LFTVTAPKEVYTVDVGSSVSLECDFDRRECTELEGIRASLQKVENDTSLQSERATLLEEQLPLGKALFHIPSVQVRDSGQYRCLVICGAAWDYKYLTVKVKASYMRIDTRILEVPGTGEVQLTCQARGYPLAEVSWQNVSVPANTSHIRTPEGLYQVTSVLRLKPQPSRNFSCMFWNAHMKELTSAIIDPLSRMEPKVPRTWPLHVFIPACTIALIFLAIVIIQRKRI

Results are given in words; binding and its absence hold for the method and conditions named. Some entries that bind do so weakly or less than the wild type.

For test [1], the target named is full-length mouse PD-L1 with C-terminal YFP, on HEK293 cells (mouse) (UniProt Q9EP73). The experiment in a line: flow cytometry on cells; PD-L1 or PD-L2 transfected HEK293 cells incubated with purified human PD-1 Ig fusion proteins; Cy5 anti-human IgG F(ab')2; only the binder purified. Background: In flow cytometry, cells or beads pass a laser one at a time.
Test [2] addresses full-length mouse PD-L2 with C-terminal YFP, on HEK293 cells (mouse) (UniProt Q9WUL5). The description is as above.

Regarding “high-affinity human PD-1 (A132L) Ig fusion protein (from UniProt Q15116 25-170) (Fc fusion)”, the binding entry in test [1] and in test [2] was “binds” throughout.
